In this test the target is T1, CCR3 transfected in 293 cells (UniProt P51677).
T1 sequence (looked up): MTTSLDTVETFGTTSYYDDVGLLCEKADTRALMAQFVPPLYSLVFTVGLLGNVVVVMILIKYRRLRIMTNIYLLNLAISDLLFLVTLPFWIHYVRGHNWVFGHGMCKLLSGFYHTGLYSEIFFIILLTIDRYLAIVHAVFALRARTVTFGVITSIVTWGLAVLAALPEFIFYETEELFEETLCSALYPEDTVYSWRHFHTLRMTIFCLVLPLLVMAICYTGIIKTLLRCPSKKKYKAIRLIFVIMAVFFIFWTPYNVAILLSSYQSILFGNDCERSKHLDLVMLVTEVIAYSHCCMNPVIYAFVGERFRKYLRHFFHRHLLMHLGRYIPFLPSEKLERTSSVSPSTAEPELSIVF
Briefly: 125I-eotaxin competition binding on 293 cells transfected with CCR3.

Here are results for one molecule from US20030083239A1, “Chemokine receptor CCR3 antagonists” (priority 1999, published 2003).

Results are given in words; binding and its absence hold for the method and conditions named. Some binding calls cover weakened binding; strength is not graded here.

CRCAAR [hexamer peptide CRCAAR (SEQ ID NO: 1), peptide SC004411]: the binding entry is reported as “binds”.
